Test results reported in the supplement of paper PMC4604168 (melanoma cell lines).
This is one part of the list. Many values rest on one well or one pass, so single values are uncertain.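 The apoptosis fraction was the count of cleaved-PARP antibody-stained nuclei relative to all DNA-stained nuclei, imaged in 1,536-well plates. Screening doses were set so most cells survived, and baseline and induced cleaved-PARP levels vary greatly across cell lines.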

Legend:
Assay in all cases: cleaved PARP positive nuclei fraction relative to DMSO control; melanoma cells; higher = more apoptosis
Settings in all cases: library dose: low library concentration; 72 h
[1] = system: 501Mel
[2] = system: A101D
[3] = system: A2058
[4] = system: A375
[5] = system: C32
[6] = system: CBRC008 (line from a melanoma biopsy)
[7] = system: CBRC014 (line from a melanoma biopsy)
[8] = system: CBRC016 (line from a melanoma biopsy)
[9] = system: CBRC017 (line from a melanoma biopsy)
[10] = system: CBRC013 (line from a melanoma biopsy)

SMILES	cleaved PARP positive nuclei fraction [1] [%]	cleaved PARP positive nuclei fraction [2] [%]	cleaved PARP positive nuclei fraction [3] [%]	cleaved PARP positive nuclei fraction [4] [%]	cleaved PARP positive nuclei fraction [5] [%]	cleaved PARP positive nuclei fraction [6] [%]	cleaved PARP positive nuclei fraction [7] [%]	cleaved PARP positive nuclei fraction [8] [%]	cleaved PARP positive nuclei fraction [9] [%]	cleaved PARP positive nuclei fraction [10] [%]
CCCCCCCCCCCCCCCCCCOP(=O)([O-])OC1CC[N+](C)(C)CC1 [Perifosine] + CCCCCCCCc1ccc(CCC(N)(CO)CO)cc1 [fingolimod] (first compound 0.4 µM, partner dose 2 µM)	106	43.3	83.4	245	84.1	23.7	92.3	97.5	193	
N#CC[C@H](C1CCCC1)n1cc(-c2ncnc3[nH]ccc23)cn1 [ruxolitinib] + C[C@@H](N)c1ccc(C(=O)Nc2ccnc3[nH]ccc23)cc1 [RKI983] (first compound 1 µM, partner dose 0.4 µM)	39.6	162	61.8	115	75.9	46.9	110	238	95.4	
CCCCCCCCCCCCCCCCCCOP(=O)([O-])OC1CC[N+](C)(C)CC1 [Perifosine] + NC1(c2ccc(-c3nc4ccn5c(=O)[nH]nc5c4cc3-c3ccccc3)cc2)CCC1 [MK2206] (first compound 0.4 µM, partner dose 0.4 µM)	112	101	228	138	81.3	90.4	95.9	73.8	125	
Cc1ccc(Nc2nccc(N(C)c3ccc4c(C)n(C)nc4c3)n2)cc1S(N)(=O)=O [Pazopanib] + C[C@@H](Oc1cc(-c2cnn(C3CCNCC3)c2)cnc1N)c1c(Cl)ccc(F)c1Cl [Crizotinib] (first compound 0.4 µM, partner dose 0.2 µM)	129	53.7	51.7	181	74.2	71.6	114	127	84.6	
Cc1cc(Nc2cc(N3CCN(C)CC3)nc(Sc3ccc(NC(=O)C4CC4)cc3)n2)n[nH]1 [Tozasertib] + O=C(Nc1cccc(Cl)c1)Nc1ncc(CCNc2ncnc3ccsc23)s1 [SNS314] (first compound 0.006 µM, partner dose 0.0008 µM)	298	85	103	46.5	199	128	83	73.7	108	124
Cc1cn(-c2cc(NC(=O)c3ccc(C)c(Nc4nccc(-c5cccnc5)n4)c3)cc(C(F)(F)F)c2)cn1 [nilotinib] + Cn1cnc2c(F)c(Nc3ccc(Br)cc3Cl)c(C(=O)NOCCO)cc21 [selumetinib] (first compound 0.2 µM, partner dose 0.015 µM)	155	47.3	81	135	75.4	193	90.5	149	123	
Cc1ccc(Nc2nccc(N(C)c3ccc4c(C)n(C)nc4c3)n2)cc1S(N)(=O)=O [Pazopanib] + Nc1ccn([C@@H]2O[C@H](CO)[C@@H](O)C2(F)F)c(=O)n1 [gemcitabine] (first compound 0.4 µM, partner dose 0.0004 µM)	76.7	48.5	38.6	145	65.2	221	118	124	106	
Cc1cc(Nc2cc(N3CCN(C)CC3)nc(Sc3ccc(NC(=O)C4CC4)cc3)n2)n[nH]1 [Tozasertib] + COc1ccc(C2=N[C@@H](c3ccc(Cl)cc3)[C@@H](c3ccc(Cl)cc3)N2C(=O)N2CCNC(=O)C2)c(OC(C)C)c1 [Nutlin-3] (first compound 0.006 µM, partner dose 0.1 µM)	57.5	193	102	61.4	89.7	87.3	80.4	91.7	125	
Cc1cc(Nc2cc(N3CCN(C)CC3)nc(Sc3ccc(NC(=O)C4CC4)cc3)n2)n[nH]1 [Tozasertib] + CN1CCN(c2ccc3nc(-c4c(N)c5c(F)cccc5[nH]c4=O)[nH]c3c2)CC1 [Dovitinib] (first compound 0.006 µM, partner dose 0.1 µM)	189	89.8	68.2	117	158	53.4	78.8	69.6	78.1	
CCCCCCCCCCCCCCCCCCOP(=O)([O-])OC1CC[N+](C)(C)CC1 [Perifosine] + Cc1nc(Nc2ncc(C(=O)Nc3c(C)cccc3Cl)s2)cc(N2CCN(CCO)CC2)n1 [dasatanib] (first compound 0.4 µM, partner dose 0.004 µM)	178	154	141	357	78.8	87.9	77.9	87.8	69	
Cc1cc(Nc2cc(N3CCN(C)CC3)nc(Sc3ccc(NC(=O)C4CC4)cc3)n2)n[nH]1 [Tozasertib] + CCCCCCCCCCCCCCCCCCOP(=O)([O-])OC1CC[N+](C)(C)CC1 [Perifosine] (first compound 0.006 µM, partner dose 0.4 µM)	85.3	97.8	115	119	76.4	137	71.9	28.9	83.1	
O=C(/C=C/c1cccnc1)NCCCCC1CCN(C(=O)c2ccccc2)CC1 + COCC[n+]1c2c(n(Cc3cnccn3)c1C)C(=O)c1ccccc1C2=O [YM155] (first compound 0.01 µM, partner dose 0.0004 µM)	74.3	65.7	70.2	152	83.2	2790	99.8	928	698	
Cc1ccc(Nc2nccc(N(C)c3ccc4c(C)n(C)nc4c3)n2)cc1S(N)(=O)=O [Pazopanib] + CC(C)(C)c1cnc(CSc2cnc(NC(=O)C3CCNCC3)s2)o1 [SNS-032] (first compound 0.4 µM, partner dose 0.01 µM)	69.7	78.4	42.8	208	134	42.7	35.1	81.9	89.7	144
O=C(Nc1cc(C(F)(F)F)cc(C(F)(F)F)c1)c1cc(Cl)ccc1O + COCC[n+]1c2c(n(Cc3cnccn3)c1C)C(=O)c1ccccc1C2=O [YM155] (first compound 0.016 µM, partner dose 0.0004 µM)	96.5	98.1	144	72.4	67.5	518	88.9	159	117	
COc1cc([C@@H]2c3cc4c(cc3[C@@H](O[C@@H]3O[C@@H]5CO[C@@H](C)O[C@H]5[C@H](O)[C@H]3O)[C@H]3COC(=O)[C@H]23)OCO4)cc(OC)c1O [etoposide] + NCC(=O)Nc1ccc(-n2nc(C(F)(F)F)cc2-c2ccc3c(ccc4ccccc43)c2)cc1 [OSU03012] (first compound 0.02 µM, partner dose 1 µM)	355	86.6	116	6420	144	37.3	81.8	147	194	80.5
N#CC[C@H](C1CCCC1)n1cc(-c2ncnc3[nH]ccc23)cn1 [ruxolitinib] + COc1cc(Nc2ncc(F)c(Nc3ccc4c(n3)NC(=O)C(C)(C)O4)n2)cc(OC)c1OC [Tamatinib] (first compound 1 µM, partner dose 0.4 µM)	87.8	366	146	56.9	281	244	65.2	60.4	110	88.8
O=C(/C=C/c1cccnc1)NCCCCC1CCN(C(=O)c2ccccc2)CC1 + NC1(c2ccc(-c3nc4ccn5c(=O)[nH]nc5c4cc3-c3ccccc3)cc2)CCC1 [MK2206] (first compound 0.01 µM, partner dose 0.4 µM)	57.2	194	116	160	70.9	2230	110	475	452	
CCCCCCCCCCCCCCCCCCOP(=O)([O-])OC1CC[N+](C)(C)CC1 [Perifosine] + Cc1ccc(Nc2nccc(N(C)c3ccc4c(C)n(C)nc4c3)n2)cc1S(N)(=O)=O [Pazopanib] (first compound 0.4 µM, partner dose 0.4 µM)	97.7	93.7	255	250	65.9	125	135	79.3	277	
O=c1[nH]nc(Sc2ncc([N+](=O)[O-])s2)n1-c1ccc2c(c1)OCCO2 + Cc1ccc(NC(=O)c2cccc(N(C)C)c2)cc1NC(=O)c1ccc(O)cc1 [ZM336372] (first compound 0.2 µM, partner dose 2 µM)	297	140	60.6	178	141	97.8	106	84.8	93.4	90.6
COc1cc([C@@H]2c3cc4c(cc3[C@@H](O[C@@H]3O[C@@H]5CO[C@@H](C)O[C@H]5[C@H](O)[C@H]3O)[C@H]3COC(=O)[C@H]23)OCO4)cc(OC)c1O [etoposide] + CC(C)C[C@H](NC(=O)[C@H](Cc1ccccc1)NC(=O)c1cnccn1)B(O)O [Bortezomib] (first compound 0.02 µM, partner dose 0.001 µM)	954	442	68	175	96	297	134	248	258	
O=C(/C=C/c1cccnc1)NCCCCC1CCN(C(=O)c2ccccc2)CC1 + CC(C)(C)c1cnc(CSc2cnc(NC(=O)C3CCNCC3)s2)o1 [SNS-032] (first compound 0.01 µM, partner dose 0.01 µM)	81.6	45.7	23.8	104	22.4	5440	111	893	320	108

Random excerpt: 2 entries already listed, in no set order.
SMILES	cleaved PARP positive nuclei fraction [1] [%]	cleaved PARP positive nuclei fraction [2] [%]	cleaved PARP positive nuclei fraction [3] [%]	cleaved PARP positive nuclei fraction [4] [%]	cleaved PARP positive nuclei fraction [5] [%]	cleaved PARP positive nuclei fraction [6] [%]	cleaved PARP positive nuclei fraction [7] [%]	cleaved PARP positive nuclei fraction [8] [%]	cleaved PARP positive nuclei fraction [9] [%]	cleaved PARP positive nuclei fraction [10] [%]
Cc1ccc(Nc2nccc(N(C)c3ccc4c(C)n(C)nc4c3)n2)cc1S(N)(=O)=O [Pazopanib] + CC(C)(C)c1cnc(CSc2cnc(NC(=O)C3CCNCC3)s2)o1 [SNS-032] (first compound 0.4 µM, partner dose 0.01 µM)	69.7	78.4	42.8	208	134	42.7	35.1	81.9	89.7	144
CCCCCCCCCCCCCCCCCCOP(=O)([O-])OC1CC[N+](C)(C)CC1 [Perifosine] + Cc1ccc(Nc2nccc(N(C)c3ccc4c(C)n(C)nc4c3)n2)cc1S(N)(=O)=O [Pazopanib] (first compound 0.4 µM, partner dose 0.4 µM)	97.7	93.7	255	250	65.9	125	135	79.3	277	
